For three substances, binding results are on record in paper PMC8263627.

Protein sequences, listed by entry. Tags and fused reporters are not part of them.
UniProt Q92804: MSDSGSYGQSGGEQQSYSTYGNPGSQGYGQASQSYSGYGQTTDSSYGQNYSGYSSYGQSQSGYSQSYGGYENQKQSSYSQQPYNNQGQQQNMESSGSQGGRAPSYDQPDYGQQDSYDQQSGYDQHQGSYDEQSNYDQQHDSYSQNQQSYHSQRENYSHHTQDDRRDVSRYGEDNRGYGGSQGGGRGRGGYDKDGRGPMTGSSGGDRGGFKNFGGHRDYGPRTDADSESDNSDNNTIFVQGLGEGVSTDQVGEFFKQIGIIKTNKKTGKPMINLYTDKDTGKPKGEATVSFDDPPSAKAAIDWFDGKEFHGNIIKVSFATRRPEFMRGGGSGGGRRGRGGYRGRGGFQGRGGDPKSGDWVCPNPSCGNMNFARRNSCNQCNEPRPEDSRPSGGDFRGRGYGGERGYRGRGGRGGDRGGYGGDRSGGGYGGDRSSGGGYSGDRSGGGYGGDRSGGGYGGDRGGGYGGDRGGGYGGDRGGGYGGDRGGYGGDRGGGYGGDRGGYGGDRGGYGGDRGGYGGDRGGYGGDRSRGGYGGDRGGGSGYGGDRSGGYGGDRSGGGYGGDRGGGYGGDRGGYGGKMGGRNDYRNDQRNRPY
UniProt P10244: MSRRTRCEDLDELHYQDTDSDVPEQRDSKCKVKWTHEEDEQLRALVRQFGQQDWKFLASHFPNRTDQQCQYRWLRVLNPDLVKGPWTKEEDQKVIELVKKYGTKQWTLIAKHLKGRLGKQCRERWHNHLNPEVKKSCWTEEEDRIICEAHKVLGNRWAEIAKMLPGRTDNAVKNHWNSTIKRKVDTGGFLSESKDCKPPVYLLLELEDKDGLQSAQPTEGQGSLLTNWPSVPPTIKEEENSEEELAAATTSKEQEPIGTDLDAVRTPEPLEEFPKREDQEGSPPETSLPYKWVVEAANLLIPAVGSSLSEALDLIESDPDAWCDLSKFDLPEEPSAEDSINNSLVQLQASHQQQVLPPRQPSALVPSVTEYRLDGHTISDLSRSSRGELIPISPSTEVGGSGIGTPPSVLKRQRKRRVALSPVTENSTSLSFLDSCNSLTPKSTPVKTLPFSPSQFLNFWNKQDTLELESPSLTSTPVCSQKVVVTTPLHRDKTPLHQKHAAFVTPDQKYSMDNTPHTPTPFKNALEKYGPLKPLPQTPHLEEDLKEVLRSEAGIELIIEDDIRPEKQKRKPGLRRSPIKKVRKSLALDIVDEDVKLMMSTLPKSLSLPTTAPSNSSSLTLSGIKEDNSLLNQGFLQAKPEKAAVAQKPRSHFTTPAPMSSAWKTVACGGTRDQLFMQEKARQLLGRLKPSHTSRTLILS
UniProt Q09028: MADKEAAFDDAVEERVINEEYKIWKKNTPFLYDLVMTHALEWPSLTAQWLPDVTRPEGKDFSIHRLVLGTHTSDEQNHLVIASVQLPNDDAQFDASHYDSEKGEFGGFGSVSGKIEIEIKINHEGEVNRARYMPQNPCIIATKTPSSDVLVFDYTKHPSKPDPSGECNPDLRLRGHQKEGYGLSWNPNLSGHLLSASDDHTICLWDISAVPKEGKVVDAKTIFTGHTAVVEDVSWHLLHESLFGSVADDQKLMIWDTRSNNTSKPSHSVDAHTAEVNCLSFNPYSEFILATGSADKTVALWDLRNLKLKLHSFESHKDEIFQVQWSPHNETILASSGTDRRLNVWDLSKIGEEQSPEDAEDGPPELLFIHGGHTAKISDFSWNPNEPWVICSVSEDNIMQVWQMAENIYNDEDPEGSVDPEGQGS
UniProt Q5TKA1: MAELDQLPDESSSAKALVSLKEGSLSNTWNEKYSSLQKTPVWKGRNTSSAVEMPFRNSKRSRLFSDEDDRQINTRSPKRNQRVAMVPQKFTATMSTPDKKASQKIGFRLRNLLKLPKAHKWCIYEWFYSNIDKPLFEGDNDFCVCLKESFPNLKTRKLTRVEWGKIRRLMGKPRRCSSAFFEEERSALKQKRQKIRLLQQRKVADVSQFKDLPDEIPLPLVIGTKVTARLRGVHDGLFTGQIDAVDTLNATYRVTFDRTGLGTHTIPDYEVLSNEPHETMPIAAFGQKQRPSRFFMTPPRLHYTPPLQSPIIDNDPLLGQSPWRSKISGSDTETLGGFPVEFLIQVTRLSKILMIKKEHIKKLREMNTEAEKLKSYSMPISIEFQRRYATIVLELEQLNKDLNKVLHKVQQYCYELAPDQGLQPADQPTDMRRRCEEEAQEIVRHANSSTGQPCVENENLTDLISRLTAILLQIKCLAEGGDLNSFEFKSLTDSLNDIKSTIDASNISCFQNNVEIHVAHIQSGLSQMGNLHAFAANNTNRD

The target of assay [1] is GST-TAF15 recombinant protein (UniProt Q92804). As to the kind of experiment: pull-down; whole lysates of HCT116 cells transfected with Flag-EV or Flag-MYBL2 pulled down by GST-TAF15 or GST; immunoblotting; only the target purified.
The target of another assay is Flag-MYBL2 (UniProt P10244). As to the kind of experiment: co-IP; DLD1 cells transfected with empty vector or Flag-MYBL2 for 48 h, lysed in IP lysis buffer; ANTI-FLAG M2 magnetic beads; western blotting for RBBP4, LIN9, TAF15.

No constants are given. Whether binding was seen depends on the method and setting. Binding seen in cells or lysates may run through a third protein. Some results given as binding are weak or reduced against the parent protein; the word gives no strength.

Flag-MYBL2 (from UniProt P10244 1-700): the binding entry in assay [1] is on record as “binds”.
Take RBBP4 (from UniProt Q09028 1-425): the binding result in the assay with Flag-MYBL2 is on record as “binds”.
As for LIN9 (from UniProt Q5TKA1 1-542), in the assay with Flag-MYBL2, the binding result is “binds”.
